Our source for the z-score values is PubChem BioAssay AID1347423 (Functional Genomics Laboratory (NCATS/FGL), 2020).

About 210 (0.4%) of roughly 52,000 sequences were called active.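 The calls were made as follows: active = gene whose silencing raises cell survival under the drug, median off-target-corrected z-score across its silencing RNAs 2 or more; inactive = the rest.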 The list shows a part of the results.

The experiment is described as follows: Resistance to Poly (ADP-Ribose) Polymerase inhibitor: Gene Identification via Genome-wide siRNA Screen. Conditions: mouse BRCA2 R2336H ES cells, olaparib, CellTiter-Glo viability; active compounds read high. The essentials:
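Genome-wide siRNA screen (3 siRNAs/gene, 20 nM) in mouse ES cells carrying hypomorphic BRCA2 R2336H; olaparib 500 nM added 48 h post-transfection, CellTiter-Glo viability 72 h later. Normalized to plate-median negative control; MAD z-scores, gene median, seed-adjusted.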
(In ATP-based viability assays light output follows the ATP content of the culture.)
Consider AAAGAUGAGAGAAGAACUCTT against C77604, for which the z-score is inactive: 0.855.
With GGACUGGUUCAUCCUUGUGTT against G6pc the figure was inactive: 1.6.
With GGCUGAAAAACCUUCAGCATT against Sparcl1 the figure was inactive: 0.205; with GGCACAGAGAUUGAAGAUCTT against Sry, inactive: 0.537.
Next, “GGAAUUGAUAUUUUGGUGATT against 2610207I16Rik”: inactive: 0.554; GGCUCCUGGUUCUACAUCCTT against Itpr2: inactive: 0.774.
In the case of “GGGAUUGGCGGGUUUUGAUTT against 9330175E14Rik”, the z-score is inactive: -0.402.
With GGAGAACACUGAGGAAAAGTT against Olfr917 the figure was inactive: -0.303; with “GCGUGCCCAACAUUAUCAUTT against 1190005I06Rik”, inactive: -0.0233; with CCUGCAGCUGUAAAACCUGTT against Mt4, inactive: -0.909.
Next, GGUCAAAAAUCAAGUUUACTT against Zfp339: inactive: 1.1; GGCUCUAACUAUUAUGUGCTT against Psmc4: inactive: -3.27; GGAAAAGUCCCGUAUGGAGTT against Gcc1: inactive: 0.519.
Next, “GGAUCAUGUUUGUUGACCCTT against E030025L21Rik”: inactive: 2.14; GCUUGAGCUCAUGGUCACUTT against Olfr1309: inactive: 1.08.
Regarding GGAGAUCGACAGAGAAGCATT against Pcdh20, the z-score is inactive: -1.73.
For GCUACAUACCCAAAUACAUTT against Trpc4ap, the z-score is inactive: -0.682.
With GGAACUACUAGAAAAAGCATT against Prosc the figure was inactive: -0.288; with CGGGAUAUCAUUCUCCAUATT against Lnpep, inactive: 0.76.
Next, GGAAUUCCUGUUCGAUUUGTT against Ikbkap: inactive: -0.673; GUGUGCUGUCCUCAGUAGATT against Olfr1086: inactive: -0.606.
With GGACUAGUGUGAAAAAGGATT against Nsd1 the figure was inactive: 2.65; with GGAGGUACCUAUUGAGAUCTT against Pte1, inactive: -0.545; with CGCAAUGCUGGAUUAUUUATT against Ceacam2, inactive: 0.164.
For “CCCAUUAAAUUCGAUAAGATT against 9130217G22Rik”, the z-score was inactive: 0.744.
Next, “GGAUAAUUAUAGGAAGAGCTT against B130055D15Rik”: inactive: -0.394; GCUUGCUAUACGUGGAGAUTT against H2afz: inactive: -0.167; GGCCUUUAAUUUCUUACACTT against Akt1s1: inactive: 1.15.
Next, GGGUCUCUUGUGGUACAUCTT against Cln3: inactive: -0.779; GGCAGUGUAUCACAACGUGTT against Commd10: inactive: -2.1; GGAAUAUUGGUUGUGAUGATT against Ralb: inactive: 1.39.
Next, “GCGCGACAAAUCGUAGGCUTT against 5430432N15Rik”: inactive: -1.16; CCGGCUUAUGCUCAACUUCTT against U46068: inactive: -0.133.
With GGAAGAUGAUUAUGAAGAUTT against Apc, the z-score is inactive: 0.0201.
Next, “GCGCAGAAGAGGCUAUUAUTT against 2300003P22Rik”: inactive: -2.44; GCAUGGUUUACAAGGAAUGTT against Sca1: inactive: 0.307.
In the case of GGAAAAGUGGAAUCAGAUUTT against Uty, the z-score is inactive: -0.144.
Turning to GCUUCGACAUUGUUAGUUATT against Ammecr1, the z-score was inactive: 0.438.
As to GCUUAUCACUUCAGAUAUCTT against Bmp2k, the z-score was inactive: 0.402.
Next, GCAGAUAUUCUCUGUGCAGTT against Ccnf: inactive: 2.22; “GGUGGUCUUCAAGUCUGACTT against D030010E02Rik”: inactive: -1.68.
In the case of GGACAGUGUUUUUUGUAGUTT against Pdcd4, the z-score is inactive: -0.51.
On to “GGACCAAAAGAAAGUAGAATT against 2700008N14Rik”, for which the z-score is inactive: 1.13.
With CCAUGUCUUGAACUUGGAUTT against Stk22s1 the figure was inactive: 0.921; with GGAUGGAAGAAGAAAGAAUTT against Cova1, inactive: -0.882; with GGAGACAGAUGAAUGAACCTT against BC027057, inactive: 1.12.
Next, CCUUCUGGUAGUGAUUAUCTT against Olfr1365: inactive: -0.333.
For the sequence GGCUCUGCUCCUUCAAUGUTT against Dnase1l3, the z-score is inactive: -0.99.
Next, GCUAUUAAAGAGGUAGUCATT against Lancl2: inactive: -0.318.
Next, “GGUUGUCAAGAAAUUACCCTT against 4933417C16Rik”: inactive: 0.237; GGGUGAUUGAUCACUACUUTT against Olfr234: inactive: 0.185.
Next, GGCUUGAGCUGGGAUACAATT against Hnrpdl: inactive: 0.6; “GCACUGUGGGUGUUUUUAGTT against E130309D02Rik”: inactive: 1.5.
Take GGCAGCAGUUAUUGUGGAUTT against Ly6a: the z-score is inactive: -0.0575.
Take GGUGGAAGUUUGAUUGGUGTT against Ap3s2: the z-score is inactive: -0.0643.
With GGGCAUUGGGAUCCUCAAUTT against Olfr139 the figure was inactive: -0.591; with GGUCAAAACAUGUCCAAACTT against V1rd1, inactive: -0.22; with GGGUCUCUAAGUGCUCCGUTT against Sfxn2, inactive: -1.09.
CCGUAUAAACAUUUAUGAGTT against Bmp4: the z-score is inactive: -0.384.
With GGGAUCUAAAGGCUGAAAATT against Mark4 the figure was inactive: 1.73.
Next, GGAAGACGUGAGAACAGCATT against Gig1: inactive: 0.167; “GCUGAAAAUCACCCAGCAATT against 2600003E23Rik”: inactive: 0.586.
Regarding UUGUAGAAGCAUUCUUAUCTT against Olfr668, the z-score was inactive: -0.915.
With GGCUGAAGCUCGACUGAAGTT against Abcf3 the figure was inactive: -1.66; with GGAAAAAAUCACAUUGACUTT against Hist1h2ac, inactive: 0.641; with CCUUCGAGUACACCUUGCUTT against Adamtsl2, inactive: -1.23.
